The exact form of at least one protein or probe is not confirmed. For part of these data: The comparison behind a weaker result is the experiment's own reference, which may not be listed here. Where a protein sequence is shown, tags need not be part of it. For part of these data: Results from cells or extracts need not show a direct contact. For part of these data: At least one verdict was read from the data and is not stated in words by the source.
What was measured:
[1] = target: T1, YTHDF1-GFP (human) (UniProt Q9BYJ9); experiment: confocal nanoscanning (CONA), bead pull-down; details: HeLa lysate, CONA: lysate in 1% Triton X-100/PBS, beads washed in 20 mM Hepes pH 7.5, 0.3 M NaCl, 0.01% Triton X-100, 5 mM MgCl2, 2 h RT, protein in a lysate after overexpression, protein details: GFP, label: 5' Cy5, 3' biotin-TEG
T1 sequence (looked up, limits assumed): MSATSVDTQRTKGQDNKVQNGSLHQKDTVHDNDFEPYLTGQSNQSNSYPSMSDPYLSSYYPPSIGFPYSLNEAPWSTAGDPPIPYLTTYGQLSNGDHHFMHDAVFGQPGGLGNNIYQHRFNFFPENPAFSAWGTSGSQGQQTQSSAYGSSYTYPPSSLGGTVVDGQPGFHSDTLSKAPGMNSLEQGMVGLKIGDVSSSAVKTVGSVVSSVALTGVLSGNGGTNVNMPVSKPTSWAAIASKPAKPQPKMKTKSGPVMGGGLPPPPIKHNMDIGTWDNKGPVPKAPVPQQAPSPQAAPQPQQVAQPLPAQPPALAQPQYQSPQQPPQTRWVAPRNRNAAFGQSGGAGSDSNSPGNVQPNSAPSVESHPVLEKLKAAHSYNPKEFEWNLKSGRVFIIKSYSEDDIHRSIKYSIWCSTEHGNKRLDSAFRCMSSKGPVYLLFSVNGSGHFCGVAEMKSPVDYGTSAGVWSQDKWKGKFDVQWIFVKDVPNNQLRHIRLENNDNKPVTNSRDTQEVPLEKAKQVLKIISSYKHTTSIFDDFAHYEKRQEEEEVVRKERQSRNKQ

[2] = target: T2, GFP-FUS (UniProt P35637); experiment: confocal nanoscanning (CONA), bead pull-down; details: HeLa lysate, CONA: lysate in 1% Triton X-100/PBS, beads washed in 20 mM Hepes pH 7.5, 0.3 M NaCl, 0.01% Triton X-100, 5 mM MgCl2, 2 h RT, protein in a lysate after overexpression, protein details: GFP, label: 5' Cy5, 3' biotin-TEG
T2 sequence (looked up, limits assumed): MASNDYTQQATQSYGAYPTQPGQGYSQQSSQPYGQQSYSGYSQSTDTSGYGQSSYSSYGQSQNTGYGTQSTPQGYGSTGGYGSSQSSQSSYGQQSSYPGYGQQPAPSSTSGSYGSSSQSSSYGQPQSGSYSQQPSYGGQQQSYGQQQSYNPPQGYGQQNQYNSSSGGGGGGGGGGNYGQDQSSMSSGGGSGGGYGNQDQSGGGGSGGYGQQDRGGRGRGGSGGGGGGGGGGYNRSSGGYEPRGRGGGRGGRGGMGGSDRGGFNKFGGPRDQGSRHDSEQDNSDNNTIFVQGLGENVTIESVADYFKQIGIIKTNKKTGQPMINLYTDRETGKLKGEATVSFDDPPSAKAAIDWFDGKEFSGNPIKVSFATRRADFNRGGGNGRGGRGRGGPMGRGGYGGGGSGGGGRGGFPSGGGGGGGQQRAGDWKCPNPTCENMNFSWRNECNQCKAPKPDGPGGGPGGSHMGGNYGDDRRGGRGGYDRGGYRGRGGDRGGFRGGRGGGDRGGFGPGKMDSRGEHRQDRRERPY

[3] = target: T3, YTHDF1 (Active Motif #31608) (UniProt Q9BYJ9); experiment: EMSA; details: 0.64 uM YTHDF1, 250 nM RNA, positive control; m6A at positions 3, 9, 15, 22; EMSA: 50 mM Tris-HCl pH 7.5, 100 mM KCl, 2 mM MgCl2, 100 mM beta-mercaptoethanol, 0.1 mg/ml BSA, 30 min RT, 6% native gel in TBE; commercial protein; label: 5' Cy5, 3' biotin-TEG
T3 sequence (looked up, limits assumed): T1 sequence (looked up, limits assumed)

[4] = target: T4, FUS (recombinant, His-tagged) (human) (UniProt P35637); experiment: EMSA; details: 250 nM RNA, 0-7.5 uM FUS (Methods: 7.0); m6A at positions 3, 9, 15, 22; EMSA: 50 mM Tris-HCl pH 7.5, 100 mM KCl, 2 mM MgCl2, 100 mM beta-mercaptoethanol, 0.1 mg/ml BSA, 30 min RT, 6% native gel in TBE; recombinant protein; protein details: His; label: 5' Cy5, 3' biotin-TEG
T4 sequence (looked up, limits assumed): T2 sequence (looked up, limits assumed)

“GGACUCGGACUUGGACUCUGGACUUUG [4xDRACH-m6A]”: binds ([1]; positive control, m6A at positions 3, 9, 15, 22); binds more weakly ([2]; m6A at positions 3, 9, 15, 22); binds [3]. “GGACUCGGACUUGGACUCUGGACUUUG [4xDRACH-m6A]”: binds more weakly [4].
GGACUCGGACUUGGACUCUGGACUUUG [4xDRACH]: binds more weakly ([1]; differs significantly from m6A RNA); binds [2].

— paper PMC12285722, “M6A-dependent RNA condensation underlies FUS autoregulation and can be harnessed for ALS therapy development”
